The data set in a line: Endogenous plasma carnitine profiling by tandem mass spectrometry in CFS patients and healthy controls. Also noted: species or system human.

The results in this text go back to patent US20120214870A1, “METHODS FOR DIAGNOSIS AND TREATMENT OF CHRONIC FATIGUE SYNDROME” (UNIVERSITY OF SOUTH AUSTRALIA, priority 2009, published 2012).

With `C[N+](C)(C)C[C@@H](CC(=O)[O-])OC(=O)CCCCCCCCCCC(=O)O` [C12DC, dodecanedioyl-L-carnitine], the “mean acylcarnitine concentration in normal patients as % of that of the CFS patients” value stood at 72.4%.

As to hydroxy-oleyl-L-carnitine [C18:1-OH], the “mean acylcarnitine concentration in normal patients as % of that of the CFS patients” value stood at 78.1%.

For octenoyl-L-carnitine [C8:1], the “mean acylcarnitine concentration in CFS patients as % of that of the healthy controls” value is reported as 74.2%.

Turning to palmitoleyl-L-carnitine [C16:1], the “mean acylcarnitine concentration in CFS patients as % of that of the healthy controls” value was determined as 80.5%.
